# Where a name gives a salt, the structure may show the parent alone. The list shows a part of the results. Rule as the data show it: active = 0.7 or more and inactive = the rest. Many values rest on one well or one pass, so single values are uncertain.
# Test system: MiaPaCa-2 CLSA-25
# Experiment: cell death relative to DMSO vehicle (fraction); higher = more cytotoxic
# Conditions: 5 µM; treatment time 48 h; medium cystine 25 µM
row,SMILES,cell death
1,CCCN(CCC)S(=O)(=O)c1ccc(C(=O)O)cc1 [Probenecid],inactive: 0.219
2,CC(C)OC(=O)N1CCC(Oc2ncnc3c2cnn3-c2ccc(S(C)(=O)=O)cc2F)CC1,inactive: 0.11
3,COc1c(C)cnc(Cn2cnc3c(Cl)nc(N)nc32)c1C,inactive: 0.536
4,O=C1c2ccccc2C(=O)c2c1ccc(O)c2O [Alizarin],inactive: 0.00749
5,C[C@]12C=CC(=O)C=C1CC[C@@H]1[C@@H]2[C@@H](O)C[C@@]2(C)[C@H]1CC[C@]2(O)C(=O)CO [Prednisolone],inactive: 0.161
6,Nc1ccccc1S(N)(=O)=O [2-Aminobenzenesulfonamide],inactive: 0.147
7,CNC(=O)Nc1cc(Oc2cncc(C)c2)c(-c2ccc(OCC(C)(C)O)nc2)cn1,inactive: 0.0966
8,COc1cc2c(cc1Cc1cccc(Cl)c1F)c(=O)c(C(=O)O)cn2[C@H](CO)C(C)C [Elvitegravir],active: 0.803
9,CCCCCCCCCCCCCCCC(=O)NCCO [Palmidrol],inactive: 0.164
10,CC(C)c1onc(-c2c(Cl)cccc2Cl)c1COc1ccc(/C=C/c2cccc(C(=O)O)c2)c(Cl)c1,inactive: 0.0693
11,Cn1c(=O)cc(N2CCC[C@@H](N)C2)n(Cc2cc(F)ccc2C#N)c1=O [Trelagliptin],inactive: 0.268
12,CN(C)C(=N)NC(=N)N [Metformin hydrochloride],inactive: 0.452
13,CC1(C)O[C@@H]2[C@@H](CO[C@@]3(COS(N)(=O)=O)OC(C)(C)O[C@@H]23)O1 [Topiramate],inactive: 0.145
14,O=C(O)C(O)Cc1ccc(O)c(O)c1 (centres undefined) [Sodium Danshensu],inactive: 0.0327
15,COc1cc2c(c(OC)c1OC)-c1ccc(OC)c(=O)cc1[C@@H](NC(C)=O)CC2 [Colchicine],inactive: 0.457
16,O=C(O)c1cc(-c2ccc(F)cc2F)ccc1O [Diflunisal],inactive: 0.049
17,O=C(Nc1ccccc1)N1CCN(c2nc(-c3ccccc3)ns2)CC1,inactive: 0.269
18,O[C@@H]1[C@@H](O)[C@@H](OC/C=C/c2ccccc2)O[C@H](CO[C@@H]2OC[C@H](O)[C@H](O)[C@H]2O)[C@H]1O [Rosavin],inactive: 0.615
19,CN(C)C(=O)c1ccc(S(=O)(=O)c2ccc(NC(=O)[C@@](C)(O)C(F)(F)F)c(Cl)c2)cc1,inactive: 0.265
20,O=C(O)Cn1nnc(-c2cc(N3CCC(Oc4cc(F)ccc4Br)CC3)no2)n1,inactive: 0.19

row,SMILES,cell death
1,CCOC(=O)n1ccn(C)c1=S [Carbimazole],inactive: 0.46
2,C[C@H](CCC(=O)NCCS(=O)(=O)O)[C@H]1CC[C@H]2[C@@H]3[C@@H](O)C[C@@H]4C[C@H](O)CC[C@]4(C)[C@H]3CC[C@]12C [Tauroursodeoxycholic Acid],inactive: 0.612
3,COc1ccc(-c2nc(-c3cc(C(F)(F)F)cc(C(F)(F)F)c3)n(Cc3ccc(C(N)=O)cc3)c2-c2ccc(OC)cc2)cc1 [Apoptozole],inactive: 0.335
4,C[C@]12C=CC(=O)C=C1CC[C@@H]1[C@@H]2C(=O)C[C@@]2(C)[C@H]1CC[C@]2(O)C(=O)CO [Prednisone],inactive: 0.367
5,CN(CC(=O)O)C(=N)N [Creatine],inactive: 0.164
6,Nc1ccc(/C=C/C(=O)NCc2cc3cc(-c4ccc(C(=O)N5CCC(F)(F)CC5)cc4)cc(-c4ccc(F)cc4)c3o2)cn1,inactive: 0.676
7,CC(C)CC(N)=O [Isovaleramide],inactive: 0.152
8,CCCNC(=O)NS(=O)(=O)c1ccc(Cl)cc1 [Chlorpropamide],inactive: 0.497
9,Oc1ccc(CC2NCCc3cc(O)c(O)cc32)cc1 (centres undefined) [Higenamine Hydrochloride],inactive: 0.653
10,O=C(O)[C@H](CC(=O)N1C[C@H]2CCCC[C@H]2C1)Cc1ccccc1 [Mitiglinide calcium],active: 0.832
11,N=C(N)NCCN1CCCCCCC1 [Guanethidine Monosulfate],inactive: 0.573
12,CCC(CC)CC1(C(=O)Nc2ccccc2SC(=O)C(C)C)CCCCC1 [Dalcetrapib],active: 0.779
13,O=C(Oc1cccc(F)c1OC(=O)c1cccc(O)c1)c1cccc(O)c1,inactive: 0.158
14,CC(C)NC(=N)NC(=N)Nc1ccc(Cl)cc1 [Proguanil hydrochloride],inactive: 0.474
15,N[C@@H](CCC(=O)N[C@@H](CS)C(=O)NCC(=O)O)C(=O)O [Glutathione],inactive: 0.0776
16,O=C(O)Cc1cccc(OCCCN(Cc2cccc(C(F)(F)F)c2Cl)CC(c2ccccc2)c2ccccc2)c1,inactive: 0.118
17,CC(C)OC(=O)C(C(=O)OC(C)C)=C1SC=CS1 [Malotilate],inactive: 0.211
18,CCc1nc2c(C)cc(N3CCN(CC(=O)N4CC(O)C4)CC3)cn2c1N(C)c1nc(-c2ccc(F)cc2)c(C#N)s1,inactive: 0.391
19,Cc1c(C)c2c(c(C)c1O)CCC(C)(COc1ccc(CC3SC(=O)NC3=O)cc1)O2 (centres undefined) [Troglitazone],active: 0.807

# 3 compounds from above, arranged by length of the SMILES, rising:
row,SMILES,cell death
17,CC(C)OC(=O)C(C(=O)OC(C)C)=C1SC=CS1 [Malotilate],inactive: 0.211
10,O=C(O)[C@H](CC(=O)N1C[C@H]2CCCC[C@H]2C1)Cc1ccccc1 [Mitiglinide calcium],active: 0.832
16,O=C(O)Cc1cccc(OCCCN(Cc2cccc(C(F)(F)F)c2Cl)CC(c2ccccc2)c2ccccc2)c1,inactive: 0.118
